# Experimental data from US9750724B2, “Use of an aromatase inhibitor for the treatment of hypogonadism and related diseases” (Mereo BioPharma 2 Limited, priority 2011, dated 2017).
# Where two headings read alike, the source gives them in different places.
# How the values were obtained:
# [1] = target: T1, human placental microsomal aromatase (Homo sapiens, UniProt P11511); settings: microsomal fraction of human placenta; Batzl-Hartmann et al, 1994; cited from earlier work
# T1 construct: from tissue; host or cells: human placenta, microsomal fraction
# T1 sequence (P11511 1-503): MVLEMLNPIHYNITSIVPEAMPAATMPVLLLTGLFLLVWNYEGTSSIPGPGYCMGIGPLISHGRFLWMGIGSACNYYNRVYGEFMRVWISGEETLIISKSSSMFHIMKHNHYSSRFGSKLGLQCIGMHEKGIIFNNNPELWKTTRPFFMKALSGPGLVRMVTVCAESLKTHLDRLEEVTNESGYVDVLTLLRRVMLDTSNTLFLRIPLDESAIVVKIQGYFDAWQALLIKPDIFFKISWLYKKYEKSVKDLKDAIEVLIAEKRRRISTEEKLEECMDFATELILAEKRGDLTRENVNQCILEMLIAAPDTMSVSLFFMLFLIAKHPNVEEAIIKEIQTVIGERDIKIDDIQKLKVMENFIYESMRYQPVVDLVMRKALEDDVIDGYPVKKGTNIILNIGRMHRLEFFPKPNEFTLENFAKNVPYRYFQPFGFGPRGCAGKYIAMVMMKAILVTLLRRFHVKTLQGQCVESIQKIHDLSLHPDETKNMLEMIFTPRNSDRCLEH
# [2] = target: T1, human placental microsomal aromatase; assay: Aromatase inhibition in microsomal fraction of human placenta; type: biochemical; settings: in vitro
# Experimental: In two different aromatase dependent experimental models, inhibition of androstenedione-induced uterine hypertrophy in rats and inhibition of DMBA-induced mammary tumors in rats, the ED50 was 0.003 mg/kg and 0.01 mg/kg, respectively.
# 4,4′-[fluoro-(1-H-1,2,4-triazol-1-yl)methylene]bisbenzonitrile is a potent and selective inhibitor of aromatase.
structure (smiles),measurement,setting,value
"N#Cc1ccc(C(F)(c2ccc(C#N)cc2)n2cncn2)cc1 [CGP47645, 4,4′-[fluoro-(1-H-1,2,4-triazol-1-yl)methylene]bisbenzonitrile]",IC50,[1],~6.2 nM
same,IC50,[2],6 nM
